# Measurements from PubChem BioAssay AID504467 (National Center for Advancing Translational Sciences (NCATS), 2011).
# Out of some 330,000 compounds screened, about 7,700 (2.3%) were called active. This list was built around the results that the source calls inconclusive (neither active nor inactive); the mix of calls is not that of the screen. Calls come from the whole dose curve; as a rule, active = well fitted inhibition curve with a large enough effect; inconclusive = small, poorly fitted or top-dose-only effect, or effect the other way; inactive = flat fitted curve, though single readings scatter. A potency beside an inconclusive call is a rough fit, not a confirmed value.
# Test: qHTS screen for small molecules that inhibit ELG1-dependent DNA repair in human embryonic kidney (HEK293T) cells expressing luciferase-tagged ELG1; note: nearly all actives have a fitted effect of over 55% in size
# Conditions: HEK293T ELG1-luciferase reporter, luminescence, 16 h, DNA damage induced by 5-fluorouridine; series mostly up to 46.1 µM
# Procedure, shortened: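 5-Fluorouridine DNA damage + compound/DMSO, 2,000 cells/well, 16 h, 37 °C/5% CO2. ONE-Glo, 30 min RT, luminescence. Readout = decrease in reporter signal.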
# Potency is the fitted concentration of half-maximal effect.
row,SMILES,Potency
1,Cc1cc(C(=O)NC2CCCc3c2cnn3-c2ccc(C(C)(C)C)cc2)n[nH]1 (stereo unspecified),"inconclusive: 5.8 µM [inhibitor, partial curve, poor fit]"
2,CCc1ccc(OCc2ccc(C(=O)NCc3ccccn3)o2)cc1,"inconclusive: 6.51 µM [activator, full curve, poor fit]"
3,COc1ccc(C2=NOC(C(=O)NC(C)C)C2)cc1 (stereo unspecified),"inconclusive: 18.4 µM [activator, partial curve, poor fit]"
4,N#CC1(Cc2ccccc2Cl)c2ccccc2C=CN1C(=O)c1ccccc1 (stereo unspecified),"inconclusive: 25.9 µM [inhibitor, partial curve, poor fit]"
5,CN1CCN(c2ccccc2NC(=O)Cc2ccc(Cl)cc2)CC1,inactive
6,O=C(c1ccccc1)c1c[nH]c2cc3c(cc2c1=O)OCCO3,"inconclusive: 20.6 µM [activator, partial curve]"
7,Cc1cc(NC2CCCCC2)nc(-c2ccccc2O)n1,inactive
8,CC(=O)NCCc1nc2cc(NC(=O)c3ccc([N+](=O)[O-])cc3)ccc2n1C,"inconclusive: 18.3 µM [activator, partial curve]"
9,COc1ccccc1C(=O)Nc1nnc(S(=O)(=O)N2CCOCC2)s1,"inconclusive: 20.6 µM [activator, single point]"
10,COc1ccc2nc(NC(=O)CSc3ccccc3)sc2c1,"inconclusive: 9.2 µM [activator, partial curve]"
11,COc1cc2c(cc1OC)C(Nc1ccccc1)=NC(C)(C)C2,"inconclusive: 32.6 µM [activator, partial curve, poor fit]"
12,Cc1ccsc1/C=N/NC(=O)C(N)=O,"inconclusive: 23.1 µM [activator, single point]"
13,Cc1cccc(C(=O)NCc2nnc(SCC(=O)NC3=NCCS3)n2C)c1,inactive
14,Cn1c(=O)c2c(nc(SCC(=O)N3CCc4ccccc4C3)n2C)n(C)c1=O,inactive
15,COc1ccc2cc(Br)ccc2c1CC(=O)NC1CC(C)(C)NC(C)(C)C1,"inconclusive: 29.1 µM [inhibitor, single point]"
16,COc1ccc(S(=O)(=O)N2CCCCC2)cc1NC(=O)CN(Cc1ccco1)Cc1ccco1,"inconclusive: 25.9 µM [inhibitor, single point]"
17,Cc1cc(C)c(S(=O)(=O)Nc2cccc3nsnc23)c(C)c1,inactive
18,Cc1csc(NC(=O)C(C)Oc2ccc(Cl)cc2C)n1 (stereo unspecified),inactive
19,O=C(Nc1nc(-c2ccccn2)cs1)c1ncc(Cl)c(Cl)c1Cl,inactive
20,COC(=O)Cc1csc(NC(=O)c2ccc3ncsc3c2)n1,"inconclusive: 11.6 µM [activator, partial curve]"
21,Cc1sc(-n2c(C)cc(/C=N/n3cnnc3)c2C)c(C#N)c1C,"inconclusive: 8.2 µM [inhibitor, partial curve, poor fit]"
22,N=c1c(C(=O)NCC2CCCO2)cc2c(=O)n3ccccc3nc2n1Cc1ccccc1 (stereo unspecified),inactive
23,CC(=O)Nc1ccc(SCC(=O)c2cc(C)n(-c3ccccc3F)c2C)cc1,"inconclusive: 2.06 µM [activator, partial curve]"
24,O=C(O)c1ccc(NC(=O)c2cccc(C(=O)Nc3ccc(C(=O)O)cc3)c2)cc1,inactive

row,SMILES,Potency
1,CC1Cc2ccccc2N1C(=O)C1CCCN(S(=O)(=O)c2cccc3nsnc23)C1 (stereo unspecified),"inconclusive: 29.1 µM [inhibitor, partial curve, poor fit]"
2,O=C(CNC(=O)c1ccc(F)cc1)N/N=C/c1cc(Br)ccc1OC(=O)/C=C/c1ccco1,"inconclusive: 3.66 µM [inhibitor, partial curve, poor fit]"
3,COc1ccc2nc(SCc3cccc(C)c3)nc(C)c2c1,"inconclusive: 16.4 µM [activator, partial curve]"
4,COc1ccc(C(=O)Nc2nc3cc4c(cc3s2)OCCO4)c(OC)c1,"inconclusive: 3.26 µM [activator, partial curve]"
5,COC(=O)c1sccc1NC(=O)c1c(Cl)cccc1Cl,inactive
6,Cc1ccc(C(=O)Nc2ccc(Cl)cc2C)c(Cl)c1,"inconclusive: 3.66 µM [activator, full curve]"
7,O=C(/C=C/N1CCOCC1)c1cc2ccccc2o1,"inconclusive: 20.6 µM [activator, partial curve]"
8,CC(C)C(c1nnnn1Cc1ccccc1)N(Cc1ccco1)Cc1cccs1 (stereo unspecified),"inconclusive: 10 µM [inhibitor, partial curve, poor fit]"
9,CCOC(=O)NC(=O)/C(C#N)=C\Nc1ccc(Cl)cc1Cl,"inconclusive: 20.6 µM [activator, partial curve]"
10,O=C(Nc1cccc(Cl)c1)N1CCN(Cc2ccccc2)CC1,"inconclusive: 20.6 µM [activator, partial curve]"
11,O=C(CCCC(=O)NC1CCCCC1)Nc1ccc([N+](=O)[O-])cc1,"inconclusive: 6.51 µM [inhibitor, full curve]"
12,O=C(/C=C\Nc1ccc2c(c1)OCO2)c1ccc2c(c1)OCO2,"inconclusive: 6.51 µM [activator, single point]"
13,Cc1nc(NCc2ccco2)c(C#N)c2c1COC(C)(C)C2,"inconclusive: 10 µM [inhibitor, partial curve]"
14,COc1ccc(Cc2nc(-c3cccc(C)c3)no2)cc1,"inconclusive: 16.4 µM [activator, partial curve]"
15,CC(/C=C/c1ccccc1)=N/NC(=O)C(O)c1ccccc1 (stereo unspecified),"inconclusive: 25.9 µM [activator, single point]"
16,CC(=O)N1CCN(c2nc3ccc([N+](=O)[O-])cc3s2)CC1,"inconclusive: 18.3 µM [activator, single point]"
17,COc1cc2cc(CN(CCc3cccc(C)c3)C(=S)NCCCN3CCOCC3)c(=O)[nH]c2cc1OC,"inconclusive: 29.1 µM [inhibitor, single point]"
18,Nc1cccc(C(=O)Nc2ccc(N)cc2Cl)c1,"inconclusive: 16.4 µM [activator, partial curve]"
19,O=C(Nc1ncc2c(n1)-c1ccccc1OC2)c1ccccc1Cl,"inconclusive: 7.31 µM [inhibitor, partial curve, poor fit]"
20,C=C(C)Cn1c(SCC)nc2ccccc2c1=O,"inconclusive: 29.1 µM [inhibitor, single point]"
21,Cc1sc2nc(SCC(=O)N3CC(C)OC(C)C3)n(C)c(=O)c2c1C (stereo unspecified),"inconclusive: 16.4 µM [inhibitor, single point]"
22,C/C(=N/NC(=O)CN1CCN(S(=O)(=O)c2ccc(Br)cc2)CC1)c1ccncc1,"inconclusive: 14.6 µM [inhibitor, partial curve]"
23,Cc1cccc(Nc2nc3c(s2)CCCC3)c1,"inconclusive: 9.2 µM [activator, partial curve]"
24,O=[N+]([O-])c1cccc(NC(=S)N2CCN(c3ccccn3)CC2)c1,inactive

row,SMILES,Potency
1,CCC(C)c1ccc(NC(=S)N2CCN(c3ccccn3)CC2)cc1 (stereo unspecified),inactive
2,Cc1csc(NC(=O)CSc2ncc(-c3ccccc3)[nH]2)n1,inactive
3,CCOc1ccc(/C=C2\SC(=S)N(N3C(=O)C4CC4C3=O)C2=O)cc1 (stereo unspecified),inactive
4,CC(NC(=O)COC(=O)c1cn(-c2ccccc2)nc1-c1cccs1)c1ccccc1 (stereo unspecified),"inconclusive: 20.6 µM [inhibitor, single point]"
5,COc1ccc(C(=O)CC(=O)C(=O)Nc2cc(OC)ccc2OC)cc1,inactive
6,O=C1c2ccc([N+](=O)[O-])cc2C(=O)N1c1ccc(Cl)cn1,inactive
7,CCc1ccc(-c2ccc(SCc3ccccn3)nn2)cc1,"inconclusive: 6.51 µM [activator, single point]"
8,Cc1nc2cc(-c3ccccc3)ccc2o1,"inconclusive: 16.4 µM [activator, single point]"
9,CC(=O)OCCn1c(C)[n+](CCOC(C)=O)c2cc(Cl)c(Cl)cc21,inactive
10,CCN(Cc1nc2ccccc2n1C)c1ccccc1,"inconclusive: 20 µM [activator, single point]"
11,CC(C)(C)NC(=S)N/N=C/c1cc(Br)c(O)c(Br)c1,inactive
12,CN(C)c1ccc(C(=S)NC2CCCCC2)cc1,"inconclusive: 16.4 µM [activator, partial curve]"
13,N#CCSc1nnc2ccc3ccccc3n12,"inconclusive: 15.8 µM [activator, single point]"
14,Clc1ccc(-c2nnc(N3CCCC3)nn2)cc1,"inconclusive: 1.03 µM [activator, full curve]"
15,CCC(C)NS(=O)(=O)c1cc2c3c(c1)CCN3C(=O)CC2 (stereo unspecified),"inconclusive: 20.6 µM [activator, partial curve, poor fit]"
16,CCCCN(CC)CCNC(=O)c1cc2c(=O)n(C)c3ccccc3c2n1C,"inconclusive: 18.4 µM [activator, single point]"
17,O=C(Nc1ccc(CN2CCOCC2)cc1)c1ccc(Cl)cc1,"inconclusive: 2.31 µM [activator, partial curve, poor fit]"
18,CC(Oc1ccc(Br)cc1)C(=O)Nc1ccncc1 (stereo unspecified),active: 5.17 µM
19,CC1CC(Nc2ccccc2)c2ccccc2N1C(=O)c1cccnc1 (stereo unspecified),active: 16.4 µM
20,Cc1ccc(NC(=O)c2ccc(CSc3nnnn3C)cc2)cc1,"inconclusive: 14.6 µM [activator, partial curve]"
21,COc1ccc(OCc2cc(C(=O)NCc3cccc(C)n3)no2)c(Cl)c1,"inconclusive: 11.6 µM [activator, partial curve]"
22,COC(=O)c1ccc(CSc2nc3c(cnn3-c3ccc(C)c(C)c3)c(=O)[nH]2)o1,inactive
23,Cc1cccc(C)c1NC(=O)C1CCCN1S(=O)(=O)c1ccccc1 (stereo unspecified),inactive

# Grouped by structure, the entries above with a cyano group
row,SMILES,Potency
4,N#CC1(Cc2ccccc2Cl)c2ccccc2C=CN1C(=O)c1ccccc1 (stereo unspecified),"inconclusive: 25.9 µM [inhibitor, partial curve, poor fit]"
21,Cc1sc(-n2c(C)cc(/C=N/n3cnnc3)c2C)c(C#N)c1C,"inconclusive: 8.2 µM [inhibitor, partial curve, poor fit]"
9,CCOC(=O)NC(=O)/C(C#N)=C\Nc1ccc(Cl)cc1Cl,"inconclusive: 20.6 µM [activator, partial curve]"
13,Cc1nc(NCc2ccco2)c(C#N)c2c1COC(C)(C)C2,"inconclusive: 10 µM [inhibitor, partial curve]"
13,N#CCSc1nnc2ccc3ccccc3n12,"inconclusive: 15.8 µM [activator, single point]"
